According to PMC4650712, “Conversion of cell-survival activity of Akt into apoptotic death of cancer cells by two mutations on the BIM BH3 domain” (Cell Death & Disease, 2015):
No constants are given. Whether binding was seen depends on the method and setting. Binding seen in cells or lysates may run through a third protein. Some entries that bind do so weakly or less than the wild type. For some assays here: Tags and fused reporters may be left off the sequences shown.

Protein sequences, listed by entry. Tags and fused reporters are not part of them.
UniProt P10417: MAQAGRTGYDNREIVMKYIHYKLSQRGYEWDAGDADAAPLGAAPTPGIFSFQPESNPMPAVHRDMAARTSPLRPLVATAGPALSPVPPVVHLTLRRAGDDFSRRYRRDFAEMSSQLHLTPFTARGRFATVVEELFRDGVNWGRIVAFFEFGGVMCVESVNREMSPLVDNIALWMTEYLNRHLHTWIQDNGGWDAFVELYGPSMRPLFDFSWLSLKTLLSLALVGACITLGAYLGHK

T1: Recombinant human PUMA fused to GST (human) (UniProt Q9BXH1)
T1 sequence: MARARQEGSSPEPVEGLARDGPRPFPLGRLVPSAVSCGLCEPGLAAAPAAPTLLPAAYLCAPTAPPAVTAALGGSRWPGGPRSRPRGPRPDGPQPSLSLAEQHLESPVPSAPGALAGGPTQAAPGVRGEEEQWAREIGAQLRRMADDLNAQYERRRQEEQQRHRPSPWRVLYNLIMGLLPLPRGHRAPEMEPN


Legend:
[1] = molecular target: T1, Recombinant human PUMA fused to GST (human); assay: pull-down; GST-PUMA bound to glutathione agarose resin, incubated with HEK293 lysate holding HA-tagged BCL-2 and overexpressed Akt (WT, CA or KD), with BH3BIM(I155R/E158S) peptide added; bound HA-BCL-2 detected by immunoblotting; only the target purified
[2] = molecular target: HA-tagged mouse BCL-2 (mouse) (UniProt P10417); assay: pull-down; competition: BH3BIM(I155R/E158S) peptide incubated with HEK293 lysate holding HA-tagged BCL-2 and Akt (WT, CA or KD), then with GST-PUMA on glutathione agarose resin; read-out is the loss of bound HA-BCL-2; only the binder purified

| binding [1] | binding [2] | Molecule |
| --- | --- | --- |
| binds | – | HA-tagged mouse BCL-2 (from UniProt P10417 1-236) |
| – | binds | EIWIAQELRRRGDSFNAYYAR (phosphoserine at 158; acetylated amino terminus; amidated carboxyl terminus) [p-BH3BIM(I155R/E158S), 21-mer peptide phosphorylated at Ser158] |
